Experimental data published in patent publication US11026953B2, “3-beta-hydroxy-5-alpha-pregnan-20-one for use in treatment of essential tremor” (ASARINA PHARMA AB, priority 2017, dated 2021).
For at least one compound, name, drawing or mass did not settle the structure.

Amino acid sequences for entries named in this document (tags omitted). Residues count along the entry.
UniProt P14867, 28-456: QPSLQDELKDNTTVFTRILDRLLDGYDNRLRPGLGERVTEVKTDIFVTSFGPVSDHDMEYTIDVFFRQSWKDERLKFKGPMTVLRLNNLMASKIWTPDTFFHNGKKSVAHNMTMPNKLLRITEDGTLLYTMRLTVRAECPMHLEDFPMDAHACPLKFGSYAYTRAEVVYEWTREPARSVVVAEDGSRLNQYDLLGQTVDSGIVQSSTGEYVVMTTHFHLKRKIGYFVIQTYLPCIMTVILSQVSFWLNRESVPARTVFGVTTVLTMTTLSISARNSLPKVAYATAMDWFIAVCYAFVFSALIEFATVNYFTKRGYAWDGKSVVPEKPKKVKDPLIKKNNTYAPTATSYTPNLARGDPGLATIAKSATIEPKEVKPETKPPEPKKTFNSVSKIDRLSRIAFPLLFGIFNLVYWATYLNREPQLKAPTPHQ
UniProt P47870, 26-512: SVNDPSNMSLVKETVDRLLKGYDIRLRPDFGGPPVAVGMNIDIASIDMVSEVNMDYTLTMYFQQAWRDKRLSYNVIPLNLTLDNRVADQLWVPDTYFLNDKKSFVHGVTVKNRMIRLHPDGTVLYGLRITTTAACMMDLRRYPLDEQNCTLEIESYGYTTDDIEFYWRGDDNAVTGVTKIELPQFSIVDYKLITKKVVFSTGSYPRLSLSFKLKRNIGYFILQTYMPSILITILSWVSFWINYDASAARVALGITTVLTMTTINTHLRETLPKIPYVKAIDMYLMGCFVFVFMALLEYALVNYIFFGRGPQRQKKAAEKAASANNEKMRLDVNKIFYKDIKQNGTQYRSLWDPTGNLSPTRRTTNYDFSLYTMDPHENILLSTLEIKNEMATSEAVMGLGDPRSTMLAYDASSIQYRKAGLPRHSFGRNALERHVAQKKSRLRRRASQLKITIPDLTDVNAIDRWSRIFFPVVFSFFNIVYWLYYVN

Target: T1, human alpha1,beta2,gamma2 GABAA receptor (Homo sapiens, UniProt P14867+P47870)
T1 construct: expressed in transfected cells
Experiment: Patch-clamp (Dynaflow) current response in HEK-293 cells expressing the human alpha1,beta2,gamma2 GABAA receptor
Type: cell-based
Settings: read-out: IC50/EC50, THDOC enhancement of GABA mediated current; 0.03-1 μM THDOC + 30 μM GABA
Method: Assay for testing GABAA receptor effects of 3beta-hydroxy-5alpha-pregnan-20-one on human alpha1,beta,gamma and alpha4,beta,delta GABAA receptor subtype.
In these tests the protocol was optimized to be similar to the physiological conditions in the synaptic cleft.
Cell culture: HEK-293 cells, permanently transfected with the human alpha1,beta,gamma and alpha4,beta,delta GABAA receptor subtypes, were seeded at a density of 3×10^4/25 cm^2 in cellbind culture flask. The transfected cells were used for patch-clamp experiments 3 days after seeding. When using the cells for patch-clamp experiments the cells were washed twice with oxygen-bubbled extracellular (EC) solution (see below). […]
Patch pipettes were pulled from borosilicate glass and polished to a resistance 2-5 MΩ when filled with suitable intracellular solution (IC) (pH was adjusted to 7.2) and immersed in bath solution (extracellular, EC) (pH is adjusted to 7.4). […] Data were acquired using the pCLAMP software sampled at 10 kHz, filtered at 2-10 kHz and analyzed with Clampfit (versions 9.0, both from Axon instruments, Foster city, USA). […] The stability of series resistance was monitored repeatedly from the time course of capacitative transients during the experiments. The measured liquid-junction potential between EC and IC was subtracted in all data presented. […]

For `C[C@]12CC[C@@H](O)C[C@H]1CC[C@@H]1[C@@H]2CC[C@]2(C)[C@@H](C(=O)CO)CC[C@@H]12` [THDOC, Tetrahydrodeoxycorticosterone], which EC50 is on record?
The EC50 was 70 nM.
